# Experimental data reported in paper PMC7181751.
# Amino acid sequences for entries named in this document (tags omitted). Residues count along the entry.
# UniProt P56726, residues 33-793: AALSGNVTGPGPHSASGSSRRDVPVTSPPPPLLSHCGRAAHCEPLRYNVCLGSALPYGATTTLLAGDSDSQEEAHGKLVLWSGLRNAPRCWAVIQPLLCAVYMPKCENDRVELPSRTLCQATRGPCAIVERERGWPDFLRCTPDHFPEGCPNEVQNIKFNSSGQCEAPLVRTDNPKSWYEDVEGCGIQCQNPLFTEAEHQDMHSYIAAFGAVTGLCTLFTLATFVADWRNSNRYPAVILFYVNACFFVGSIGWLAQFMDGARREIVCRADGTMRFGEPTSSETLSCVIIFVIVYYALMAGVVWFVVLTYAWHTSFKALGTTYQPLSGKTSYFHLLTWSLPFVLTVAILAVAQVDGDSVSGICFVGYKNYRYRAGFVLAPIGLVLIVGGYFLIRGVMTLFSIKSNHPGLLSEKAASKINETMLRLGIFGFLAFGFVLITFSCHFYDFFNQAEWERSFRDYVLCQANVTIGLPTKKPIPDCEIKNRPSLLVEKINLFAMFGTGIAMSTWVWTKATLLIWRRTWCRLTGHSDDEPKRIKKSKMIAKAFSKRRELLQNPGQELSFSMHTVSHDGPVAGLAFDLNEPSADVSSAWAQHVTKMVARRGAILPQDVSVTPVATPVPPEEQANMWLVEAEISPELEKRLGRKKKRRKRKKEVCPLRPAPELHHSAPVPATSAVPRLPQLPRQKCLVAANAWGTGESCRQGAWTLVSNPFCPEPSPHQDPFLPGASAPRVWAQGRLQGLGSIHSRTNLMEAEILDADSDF
# Results are given in words; binding and its absence hold for the method and conditions named. Binding seen in cells or lysates may run through a third protein. For some assays here: Sequences can lack the tags named with a protein.
# Key:
# [1] = molecular target: T1, Gas1 (Growth arrest-specific gene 1), endogenous (mouse (endogenous in NIH3T3)) (UniProt Q01721); test: co-IP; NIH3T3/Cas9 Ptch1 KO cells transfected with Myc-tagged Ptch2, stimulated with Shh protein (200 ng/mL) in serum-free medium for 40 min; IP of Ptch2 and reciprocal IP with antibody against endogenous Gas1, Western blot
# T1 sequence: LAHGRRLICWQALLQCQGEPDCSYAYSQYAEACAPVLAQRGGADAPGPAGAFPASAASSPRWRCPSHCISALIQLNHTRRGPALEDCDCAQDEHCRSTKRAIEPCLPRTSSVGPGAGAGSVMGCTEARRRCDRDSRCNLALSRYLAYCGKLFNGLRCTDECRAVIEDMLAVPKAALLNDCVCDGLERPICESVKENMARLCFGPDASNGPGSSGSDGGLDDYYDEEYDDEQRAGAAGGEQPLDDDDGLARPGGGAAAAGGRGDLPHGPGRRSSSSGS
# [2] = molecular target: T2, mouse Ptch2, Myc-tagged (pCMV6-mPtch2-MycDDK) (mouse) (UniProt O35595); test: as above
# T2 sequence: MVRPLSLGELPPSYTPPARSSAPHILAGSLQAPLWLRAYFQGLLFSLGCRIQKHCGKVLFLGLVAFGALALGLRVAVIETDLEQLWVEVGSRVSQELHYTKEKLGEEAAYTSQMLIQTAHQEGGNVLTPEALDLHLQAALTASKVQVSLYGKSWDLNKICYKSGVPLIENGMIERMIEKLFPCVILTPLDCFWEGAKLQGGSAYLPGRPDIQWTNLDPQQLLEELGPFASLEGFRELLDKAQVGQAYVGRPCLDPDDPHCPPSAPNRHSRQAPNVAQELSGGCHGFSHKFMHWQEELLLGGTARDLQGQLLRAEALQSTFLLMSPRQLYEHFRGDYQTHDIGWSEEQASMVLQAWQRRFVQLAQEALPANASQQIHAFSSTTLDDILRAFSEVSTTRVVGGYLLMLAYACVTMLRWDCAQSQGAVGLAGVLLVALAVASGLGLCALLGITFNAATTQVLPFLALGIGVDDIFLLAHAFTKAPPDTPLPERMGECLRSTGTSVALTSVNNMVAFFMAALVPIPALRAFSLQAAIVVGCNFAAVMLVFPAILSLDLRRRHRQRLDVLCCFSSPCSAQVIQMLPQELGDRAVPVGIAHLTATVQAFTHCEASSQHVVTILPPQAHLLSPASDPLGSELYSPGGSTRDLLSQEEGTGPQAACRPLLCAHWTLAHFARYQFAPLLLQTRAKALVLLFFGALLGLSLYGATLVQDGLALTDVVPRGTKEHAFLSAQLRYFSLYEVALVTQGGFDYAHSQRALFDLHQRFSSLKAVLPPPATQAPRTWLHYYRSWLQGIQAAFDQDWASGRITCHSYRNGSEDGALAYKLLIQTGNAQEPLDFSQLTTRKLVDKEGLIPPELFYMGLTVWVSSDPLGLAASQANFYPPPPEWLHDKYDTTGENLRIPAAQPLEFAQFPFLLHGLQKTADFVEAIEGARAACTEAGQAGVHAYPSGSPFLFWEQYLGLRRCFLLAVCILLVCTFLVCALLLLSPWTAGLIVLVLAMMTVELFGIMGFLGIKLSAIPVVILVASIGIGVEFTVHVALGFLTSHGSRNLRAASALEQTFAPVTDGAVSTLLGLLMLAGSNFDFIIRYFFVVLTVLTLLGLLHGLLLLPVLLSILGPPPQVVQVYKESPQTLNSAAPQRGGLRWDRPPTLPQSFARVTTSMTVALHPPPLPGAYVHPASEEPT
substance,measurement,setting,value
"Smoothened (Smo), endogenous (from UniProt P56726 33-793) (receptor)",binding,[1],no binding
same,binding,[2],no binding (condition: after Shh for 40 min)
